We go through two molecules from publication doi:10.1101/2020.05.27.118315.

No constants are given. Whether binding was seen depends on the method and setting. For some assays here: Binding seen in cells or lysates may run through a third protein. Some entries that bind do so weakly or less than the wild type. Tags and fused reporters may be left off the sequences shown.

One assay addresses T1, GFP-Snx4 (S. cerevisiae) (UniProt P47057).
T1 sequence: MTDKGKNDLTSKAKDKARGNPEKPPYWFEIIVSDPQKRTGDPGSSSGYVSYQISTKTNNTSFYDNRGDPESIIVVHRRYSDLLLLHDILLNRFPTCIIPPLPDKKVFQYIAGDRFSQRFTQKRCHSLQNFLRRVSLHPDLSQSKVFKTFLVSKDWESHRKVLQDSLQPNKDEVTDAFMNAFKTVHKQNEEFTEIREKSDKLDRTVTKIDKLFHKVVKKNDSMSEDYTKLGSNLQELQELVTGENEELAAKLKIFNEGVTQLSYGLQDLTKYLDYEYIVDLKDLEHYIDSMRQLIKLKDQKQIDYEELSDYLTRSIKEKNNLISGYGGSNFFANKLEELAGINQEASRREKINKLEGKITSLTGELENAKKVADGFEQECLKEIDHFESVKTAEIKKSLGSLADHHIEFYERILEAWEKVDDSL
In words: co-IP.

The target of assay [1] is T2, Gal4-BD-Snx4 (S. cerevisiae) (UniProt P47057).
T2 sequence: T1 sequence
In words: two-hybrid.

B1: Med13-3xHA (protein, UniProt P38931 1-1420)
chain: MSSDASTYRLEDVLSSFYRVEKIKKINYHQYISKAQNDQWSIQMEFMLRKQDPKTLVALLSRDLWCFSINDDPVPTPPAIEHKPVSPDKIGTFTADYSKPNLPPHYALFLKALRRKIYINLALGSHNKLIQFGNACISLSGVPNYLVQLEPHLFVNGDLTVSLCAKNMGLVPMKEENLEESFLSKHALYLAPSGIRMHLAPASKQGYLITPPKHTELLLTTLSVSHGINLQNKKNLKWVAVVPDLGHLNGHTPTIASYLTPLLEAKKLVWPLHLIFAQPVADIENSTSGDPSEFHCLQDALDAIDDFIQLKQTAAYRTPGSSGVLSSNIAGTNPLSSDGAYTEQFQHYKNNSISSQPASYHSVQETNKISPKDFSPNFTGIDKLMLSPSDQFAPAFLNTPNNNINENELFNDRKQTTVSNDLENSPLKTELEANGRSLEKVNNSVSKTGSVDTLHNKEGTLEQREQNENLPSDKSDSMVDKELFGEDEDEDLFGDSNKSNSTNESNKSISDEITEDMFEMSDEEENNNNKSINKNNKEMHTDLGKDIPFFPSSEKPNIRTMSGTTKRLNGKRKYLDIPIDEMTLPTSPLYMDPGAPLPVETPRDRRKSVFAPLNFNPIIENNVDNKYKSGGKFSFSPLQKEEALNFDISMADLSSSEEEEDEEENGSSDEDLKSLNVRDDMKPSDNISTNTNIHEPQYINYSSIPSLQDSIIKQENFNSVNDANITSNKEGFNSIWKIPQNDIPQTESPLKTVDSSIQPIESNIKMTLEDNNVTSNPSEFTPNMVNSEISNLPKDKSGIPEFTPADPNLSFESSSSLPFLLRHMPLASIPDIFITPTPVVTISEKEQDILDLIAEQVVTDYNILGNLGIPKIAYRGVKDCQEGLITTTMLQLFSTFDRLNGNDTISKFYNMKQPYVFVKKHHELIKVKHDSQPFIKFLNFRPPNGIKNFKSLLLSSSFKEDCLSFAPTLSQTYINQELGFCELLKLTNEDPPGLMYLKAFDKNKLLLLAAQIVSYCSNNKNSIKNVPPILIILPLDNATLTELVDKANIFQVIKNEVCAKMPNIELYLKVIPMDFIRNVLVTVDQYVNVAISIYNMLPPKSVKFTHIAHTLPEKVNFRTMQQQQMQQQQQQQQQQQNNSTGSSSIIYYDSYIHLAYSRSVDKEWVFAALSDSYGQGSMTKTWYVGNSRGKFDDACNQIWNIALNLASKKFGKICLILTRLNGILPDDELMNWRRLSGRNIHLAVVCVDDNSKISFIDEDKLYPSFKPIYKDTRFGGRMDMTRLYDYEIRDIDQDIHGIVFQHPFPLAHSQHRCAIRSGALIKFKKCDGDTVWDKFAVNLLNCPHSDSTQLLETILEEFRNLAALNVWYGLSDGEDGHIPWHILAVKKMMNTLVHTRVKIANTSAATVHTATSSSIILSDK
B1: the binding entry with GFP-Snx4 (S. cerevisiae) is given as “binds”.

B2: Gal4-AD-Med13^907-1163 (domain or fragment, UniProt P38931 907-1163)
chain: KFYNMKQPYVFVKKHHELIKVKHDSQPFIKFLNFRPPNGIKNFKSLLLSSSFKEDCLSFAPTLSQTYINQELGFCELLKLTNEDPPGLMYLKAFDKNKLLLLAAQIVSYCSNNKNSIKNVPPILIILPLDNATLTELVDKANIFQVIKNEVCAKMPNIELYLKVIPMDFIRNVLVTVDQYVNVAISIYNMLPPKSVKFTHIAHTLPEKVNFRTMQQQQMQQQQQQQQQQQNNSTGSSSIIYYDSYIHLAYSRSVDKE
As to B2, in assay [1], the binding result is on record as “binds”.
